Experimental data from PMC12204631.
These are yes or no findings as the source states them, for the method shown. Binding seen in cells or lysates may run through a third protein. A yes stands for co-enrichment or nearness to the bait. Other partners may have been found. Tags and fused reporters may be left off the sequences shown.

T1: 6HIS-HA-JHD2 (S. cerevisiae) (UniProt P47156)
T1 sequence: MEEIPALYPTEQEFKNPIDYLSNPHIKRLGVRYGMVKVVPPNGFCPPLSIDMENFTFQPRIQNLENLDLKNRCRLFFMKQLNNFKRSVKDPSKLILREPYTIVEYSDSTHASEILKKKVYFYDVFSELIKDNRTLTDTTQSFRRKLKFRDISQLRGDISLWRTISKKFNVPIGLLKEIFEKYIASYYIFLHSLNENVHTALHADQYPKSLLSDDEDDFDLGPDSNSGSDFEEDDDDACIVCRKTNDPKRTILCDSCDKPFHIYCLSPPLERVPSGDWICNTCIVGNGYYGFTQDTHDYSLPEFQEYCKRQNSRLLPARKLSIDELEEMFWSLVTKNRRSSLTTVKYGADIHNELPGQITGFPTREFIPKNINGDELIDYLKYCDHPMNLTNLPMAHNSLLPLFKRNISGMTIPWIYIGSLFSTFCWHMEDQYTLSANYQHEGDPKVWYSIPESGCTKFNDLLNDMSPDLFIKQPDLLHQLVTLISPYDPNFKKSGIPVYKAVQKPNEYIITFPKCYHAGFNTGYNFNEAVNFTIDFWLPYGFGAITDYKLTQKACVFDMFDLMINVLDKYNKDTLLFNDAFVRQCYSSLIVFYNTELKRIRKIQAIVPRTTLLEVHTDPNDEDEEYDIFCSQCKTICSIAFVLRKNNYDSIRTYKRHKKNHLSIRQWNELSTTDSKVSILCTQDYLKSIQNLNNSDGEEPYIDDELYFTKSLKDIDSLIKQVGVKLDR


Target: T1, 6HIS-HA-JHD2 (S. cerevisiae)
Experiment: affinity purification with mass spectrometry; whole cell extracts of a wild-type strain with 6HIS-HA-JHD2 induced from the GAL1 promoter for 6 hours; Ni-NTA agarose and anti-HA agarose beads at 4°C for 24 hours; proteins found with the empty vector strain excluded

| binding | Binder |
| --- | --- |
| binds | IRR1 (protein, UniProt P40541 1-1150) MTAVRRSTRIRTKSQVIEEDYDDEQNTSAQHVESDKITAKTQHEEEEEQDTGESEESSSEDDYEDQDDDDYVDTATAKRKSRKRKPKSASNTSSKRQKKKPTSAQKSAVSHAPAYHRSKKDQDQYLEIAKDFQPTELFDILSTSEDVSIEELLREWLETYSENRDKFLQEFINLLLNCCGSVARVEDHDVHSNESSNETIGEIQLLFQRQKLHEFYLLISKENKKRKNFKMGPLYQNFAEFMTKLLEVANDLQLLYVESDEDDTQIVTGNLVLDLLTWLSSFSVCKIRCFRYISTLTLYLFQDYLTQQAVNLEKNYLAKLSKQLSLEEKKKRPNNKTLEKLESTIAETQGSKVVIDSIIDNIVKLCFVHRYKDVSDLIRSESMLHLSIWIKNYPEYFLKVTFLKYFGWLLSDNSVSVRLQVTKILPHLIIQNHNSKSTDNSAIRQVFERFKTKILEVAIRDVNLDVRIHSIQVLTEASSLGYLDDSEILIISSLMFDEEFDPFKTSSFNKRSKFLSTVAKFLARVIKEKFDEFIKTHEDLPKEVDGLEVGPVVQVGIFIKILNDSLIYHLKDCAEVDSRTKIRMLTQAAEFLSPYISTHLKTICNLLISDTESNELIQKLQNSANNNSDDEDVDDEELDITPLFPIDRNSTILYLNVFHGLCAGANNPKIQTKDSVKEIVLPLFYDLLNAASIESADILCPLLESFITFSLDDWISIGYETELKKITDKTIKAFMDSTIGNSKVDMKYDIFAKFIHHIHHFEKKELQEKFLNQIATLKIHLKKFLQEKMDPNNSRDDYKDLTCSLYELYINKLTILGRDYPIEVDEELLQLFLNNFVSRIPIMFQDFDDSTAQEINFKMLVLLATWNLEKWREIIEKVRDYENSISKDLRSVWKPIAAIIGRLNTLVISLAATNETFENINSLFYLKWSACTSLMDIIVAIKIFELKLPADATTWRYSMSEQFPFYLHDNASKVLLKIFLYLESLFAKQVDVQLERVADEDANLNDLPETGFFENIETEFLLFTVKLKGLMKLNILDERFASRVALNKEKLGPLFKKIVDDTIMENPEPNKKNIQKAKSNQTQREKAPLQPNSERETDHANTENNDPDIPMTIDLEPIEESSQNNSELAPIEEHPTVVDAIDNSDEITQD |
| binds | HRR25 (protein, UniProt P29295 1-494) MDLRVGRKFRIGRKIGSGSFGDIYHGTNLISGEEVAIKLESIRSRHPQLDYESRVYRYLSGGVGIPFIRWFGREGEYNAMVIDLLGPSLEDLFNYCHRRFSFKTVIMLALQMFCRIQYIHGRSFIHRDIKPDNFLMGVGRRGSTVHVIDFGLSKKYRDFNTHRHIPYRENKSLTGTARYASVNTHLGIEQSRRDDLESLGYVLIYFCKGSLPWQGLKATTKKQKYDRIMEKKLNVSVETLCSGLPLEFQEYMAYCKNLKFDEKPDYLFLARLFKDLSIKLEYHNDHLFDWTMLRYTKAMVEKQRDLLIEKGDLNANSNAASASNSTDNKSETFNKIKLLAMKKFPTHFHYYKNEDKHNPSPEEIKQQTILNNNAASSLPEELLNALDKGMENLRQQQPQQQVQSSQPQPQPQQLQQQPNGQRPNYYPEPLLQQQQRDSQEQQQQVPMATTRATQYPPQINSNNFNTNQASVPPQMRSNPQQPPQDKPAGQSIWL |
| binds | HSK3 (protein, UniProt P69852 1-69) MNANKQRQYNQLAHELRELQTNLQETTKQLDIMSKQCNENLVGQLGKVHGSWLIGSYIYYMEQMLGKTQ |
| binds | SGT1 (protein, UniProt Q08446 1-395) MPVEKDLKTAYKALYDEKEPLKALHLYDEILKGSPTNLTALIFKAACLEKLYFGFSDWHSDATMENAKELLDKALMTAEGRGDRSKIGLVNFRYFVHFFNIKDYELAQSYFKKAKNLGYVDDTLPLWEDRLETKLNKKNKKQKDSTNKHTIKPVESIENRGDNNSSHSPISPLKIETAPQESPKFKIDWYQSSTSVTISLFTVNLPESKEQVNIYISPNDRRTLSISYQVPKSGSEFQYNAKLSHEVDPKAVSLKIFPKKLEITLSKIDSTQWKKLEEDILTESSRLSDEGKNSDSATRLLSAETASKERLSYPSSSKKKIDWSKLDIDEEADEEAGSADSFFQKLYAGADPDTKRAMMKSFIESNGTALSTDWEDVSKGTVKTSPPEGMEPKHW |
| binds | PSH1 (protein, UniProt Q12161 1-406) MGDELHNRLLHQNDGTKDAILYKIIESLVCSICHDYMFVPMMTPCGHNYCYGCLNTWFASNTQKELACPQCRSDITTIPALNTTLQQYLSFILEKLRDQNDESFKKLLTTKTKEENDYKNDKEKDTLFDKVFKNSALAVADDSDDGITRCSNCHWELDPDEVEDGNVCPHCNARIRNYAGGRDEFDEEEYSEGELDEIRESMRRRRENRFASTNPFANRDDVSSEDDDSSEEEPMREHIPLGRWARSHNRSIAVDAVDDEDDEEEDEEEEEEMDSDLKDFIEDDEDDEDEDGSRRNLVLSALKNRHVIITDDEEEEQRRHATEEEDRDSDFYEHNDDGFVSGDSLDEDQKEVTRIQSSSDSEDRSLSYSGSSDVKDNNDDNTEELDDPQPKRQKRFRVVLGDSDDE |
| binds | FUN30 (protein, UniProt P31380 1-1131) MSGSHSNDEDDVVQVPETSSPTKVASSSPLKPTSPTVPDASVASLRSRFTFKPSDPSEGAHTSKPLPSGSPEVALVNLAREFPDFSQTLVQAVFKSNSFNLQSARERLTRLRQQRQNWTWNKNASPKKSETPPPVKKSLPLANTGRLSSIHGNINNKSSKITVAKQKTSIFDRYSNVINQKQYTFELPTNLNIDSEALSKLPVNYNKKRRLVRADQHPIGKSYESSATQLGSAREKLLANRKYGRHANDNDEEEEESMMTDDDDASGDDYTESTPQINLDEQVLQFINDSDIVDLSDLSDTTMHKAQLIASHRPYSSLNAFVNTNFNDKDTEENASNKRKRRAAASANESERLLDKITQSIRGYNAIESVIKKCSSYGDLVTSQMKKWGVQVEGDNSELDLMNLGEDDDDDNDDGNNDNNNSNNNNTAGADATSKEKEDTKAVVEGFDETSAEPTPAPAPAPVERETKRIRNTTKPKVVEDEDDDVDLEAIDDELPQSEHEDDDYEEEDEDYNDEEEDVEYDDGDDDDDDDDEFVATRKNTHVISTTSRNGRKPIVKFFKGKPRLLSPEISLKDYQQTGINWLNLLYQNKMSCILADDMGLGKTCQVISFFAYLKQINEPGPHLVVVPSSTLENWLREFQKFAPALKIEPYYGSLQEREELRDILERNAGKYDVIVTTYNLAAGNKYDVSFLKNRNFNVVVYDEGHMLKNSTSERFAKLMKIRANFRLLLTGTPLQNNLKELMSLLEFIMPNLFISKKESFDAIFKQRAKTTDDNKNHNPLLAQEAITRAKTMMKPFILRRRKDQVLKHLPPKHTHIQYCELNAIQKKIYDKEIQIVLEHKRMIKDGELPKDAKEKSKLQSSSSKNLIMALRKASLHPLLFRNIYNDKIITKMSDAILDEPAYAENGNKEYIKEDMSYMTDFELHKLCCNFPNTLSKYQLHNDEWMQSGKIDALKKLLKTIIVDKQEKVLIFSLFTQVLDILEMVLSTLDYKFLRLDGSTQVNDRQLLIDKFYEDKDIPIFILSTKAGGFGINLVCANNVIIFDQSFNPHDDRQAADRAHRVGQTKEVNITTLITKDSIEEKIHQLAKNKLALDSYISEDKKSQDVLESKVSDMLEDIIYDENSKPKGTKE |
| binds | RIO1 (protein, UniProt Q12196 1-484) MSLEDKFDSLSVSQGASDHINNQLLEKYSHKIKTDELSFSRAKTSKDKANRATVENVLDPRTMRFLKSMVTRGVIADLNGCLSTGKEANVYHAFAGTGKAPVIDEETGQYEVLETDGSRAEYAIKIYKTSILVFKDRERYVDGEFRFRNSRSQHNPRKMIKIWAEKEFRNLKRIYQSGVIPAPKPIEVKNNVLVMEFLSRGNGFASPKLKDYPYKNRDEIFHYYHTMVAYMRLLYQVCRLVHADLSEYNTIVHDDKLYMIDVSQSVEPEHPMSLDFLRMDIKNVNLYFEKMGISIFPERVIFQFVISETLEKFKGDYNNISALVAYIASNLPIKSTEQDEAEDEIFRSLHLVRSLGGLEERDFDRYTDGKFDLLKSLIAHDNERNFAASEQFEFDNADHECSSGTEEFSDDEEDGSSGSEEDDEEEGEYYDDDEPKVLKGKKHEDKDLKKLRKQEAKDAKREKRKTKVKKHIKKKLVKKTKSKK |
| binds | MAD1 (protein, UniProt P40957 1-749) MDVRAALQCFFSALSGRFTGKKLGLEIYSIQYKMSNSGGSSPFLESPGGSPDVGSTNGQSNRQIQALQFKLNTLQNEYEIEKLQLQKQTNILEKKYKATIDELEKALNDTKYLYESNDKLEQELKSLKERSANSMNDKDKCIEELRTTLQNKDLEMETLRQQYDSKLSKVTNQCDHFKLEAESSHSLLMKYEKEIKRQSVDIKDLQHQVMEKDDELSSVKASKMINSHPNYSTEEFNELTEMNKMIQDQVQYTKELELANMQQANELKKLKQSQDTSTFWKLENEKLQNKLSQLHVLESQYENLQLENIDLKSKLTKWEIYNDSDDDDDNNVNNNDNNNNNKNDNNNDNNNDTSNNNNINNNNRTKNNIRNNPEEIIRDWKLTKKECLILTDMNDKLRLDNNNLKLLNDEMALERNQILDLNKNYENNIVNLKRLNHELEQQKSLSFEECRLLREQLDGLYSAQNNALLEVENSETHASNKNVNEDMNNLIDTYKNKTEDLTNELKKLNDQLLSNSNDVETQRKKRKLTSDQIGLNYSQRLNELQLENVSVSRELSKAQTTIQLLQEKLEKLTKLKEKKIRILQLRDGPFIKDQFIKKNKLLLLEKENADLLNELKKNNPAVETVPISVYDSLNFELKQFEQEVFKSNKRFSRLKQVFNNKSLEFIDVVNSLLGFKLEFQQDSRVKIFSCFKPEKYLIADLNENTLKSNLDADIEGWDDLMNLWVEDRGQLPCFLATITLRLWEQRQAK |
